Measurements reported in PubChem BioAssay AID652272 (Drosophila RNAi Screening Center, 2013).

Aim: 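Genes whose knock-down decreases or increases Hedgehog reporter output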 (primary screen)
Cell system: Drosophila clone 8 (Cl8) cells
Reagent: long dsRNA against Drosophila genes
Detection: 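Firefly light from a Hedgehog-responsive ptc promoter reporter and Renilla reference light, both read on a plate reader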
Reading the numbers: firefly Hh reporter signal: higher = more ptc reporter light; Renilla reference signal: higher = more Renilla control light
Call rule: 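Called a hit if the two-replicate mean z-score lies below -2 or above +3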
Meaning of the calls: active = hit: reporter lowered or raised; inactive = not a hit
The deposit covers about 21,000 reagents; this is an unselected part of those that have a named target and a result. In the full data, 503 (2.4%) got an active call. 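Raw plate light values, not normalised; calls rest on replicate z-scores that were not deposited; hits include reporter decreases as well as increases.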 A plus sign joins genes that one reagent is predicted to hit. Reagent sequences are not shown. Not stated in the record: the amount of reagent, the time to read-out.

CG11041 showed firefly Hh reporter signal, replicate 1 = 1.05e5; firefly Hh reporter signal, replicate 2 = 79337; Renilla reference signal, replicate 1 = 2823; Renilla reference signal, replicate 2 = 5188; inactive.
For Hexim, the values are firefly Hh reporter signal, replicate 1 = 64839; firefly Hh reporter signal, replicate 2 = 77350; Renilla reference signal, replicate 1 = 2949; Renilla reference signal, replicate 2 = 2680; inactive.
Vha14-2 scored firefly Hh reporter signal, replicate 1 = 95876; firefly Hh reporter signal, replicate 2 = 1.07e5; Renilla reference signal, replicate 1 = 3565; Renilla reference signal, replicate 2 = 3104; inactive.
For Spps the deposit lists firefly Hh reporter signal, replicate 1 = 1.03e5; firefly Hh reporter signal, replicate 2 = 84919; Renilla reference signal, replicate 1 = 3461; Renilla reference signal, replicate 2 = 2675; inactive.
After knock-down of Bap170, the screen gave firefly Hh reporter signal, replicate 1 = 1.70e5; firefly Hh reporter signal, replicate 2 = 1.23e5; Renilla reference signal, replicate 1 = 7157; Renilla reference signal, replicate 2 = 5350; inactive.
Silencing of Tbc1d8-9 gave: firefly Hh reporter signal, replicate 1 = 86028; firefly Hh reporter signal, replicate 2 = 58480; Renilla reference signal, replicate 1 = 2752; Renilla reference signal, replicate 2 = 1475; inactive.
Against SdhCL the deposit lists firefly Hh reporter signal, replicate 1 = 1.33e5; firefly Hh reporter signal, replicate 2 = 1.76e5; Renilla reference signal, replicate 1 = 3888; Renilla reference signal, replicate 2 = 4793; inactive.
For CG30466, the values are firefly Hh reporter signal, replicate 1 = 1.13e5; firefly Hh reporter signal, replicate 2 = 2.43e5; Renilla reference signal, replicate 1 = 8489; Renilla reference signal, replicate 2 = 9753; inactive.
Against CG30495, the entry reads firefly Hh reporter signal, replicate 1 = 95776; firefly Hh reporter signal, replicate 2 = 46644; Renilla reference signal, replicate 1 = 2339; Renilla reference signal, replicate 2 = 4331; inactive.
Silencing of btl came out at: firefly Hh reporter signal, replicate 1 = 78051; Renilla reference signal, replicate 1 = 5728; Renilla reference signal, replicate 2 = 2272; inactive.
CG6770 scored firefly Hh reporter signal, replicate 1 = 97601; firefly Hh reporter signal, replicate 2 = 4.56e5; firefly Hh reporter signal, replicate 3 = 34285; Renilla reference signal, replicate 1 = 2786; Renilla reference signal, replicate 2 = 29888; inactive.
Knock-down of CG6059 came out at: firefly Hh reporter signal, replicate 1 = 1.33e5; firefly Hh reporter signal, replicate 2 = 58688; Renilla reference signal, replicate 1 = 2854; Renilla reference signal, replicate 2 = 1702; inactive.
After knock-down of Hrs the results were firefly Hh reporter signal, replicate 1 = 1.42e5; firefly Hh reporter signal, replicate 2 = 1.05e5; Renilla reference signal, replicate 1 = 5636; Renilla reference signal, replicate 2 = 3787; inactive.
Depletion of Exo70 gave: firefly Hh reporter signal, replicate 1 = 31043; firefly Hh reporter signal, replicate 2 = 48392; Renilla reference signal, replicate 1 = 3276; Renilla reference signal, replicate 2 = 3175; inactive.
Jarid2 showed firefly Hh reporter signal, replicate 1 = 1.04e5; firefly Hh reporter signal, replicate 2 = 44869; Renilla reference signal, replicate 1 = 4963; Renilla reference signal, replicate 2 = 2170; inactive.
For gwl the deposit lists firefly Hh reporter signal, replicate 1 = 79248; firefly Hh reporter signal, replicate 2 = 53733; Renilla reference signal, replicate 1 = 2965; Renilla reference signal, replicate 2 = 2183; inactive.
HmgD showed firefly Hh reporter signal, replicate 1 = 1.36e5; firefly Hh reporter signal, replicate 2 = 84853; Renilla reference signal, replicate 1 = 5659; Renilla reference signal, replicate 2 = 3764; inactive.
Depletion of CG34300 resulted in: firefly Hh reporter signal, replicate 1 = 61003; firefly Hh reporter signal, replicate 2 = 2.18e5; Renilla reference signal, replicate 1 = 14092; Renilla reference signal, replicate 2 = 5019; inactive.
Knock-down of CG30058 + CG34235 + CG34312 resulted in: firefly Hh reporter signal, replicate 1 = 1.59e5; firefly Hh reporter signal, replicate 2 = 2.34e5; Renilla reference signal, replicate 1 = 4138; Renilla reference signal, replicate 2 = 10082; inactive.
Sox15 showed firefly Hh reporter signal, replicate 1 = 96258; firefly Hh reporter signal, replicate 2 = 23781; Renilla reference signal, replicate 1 = 2770; Renilla reference signal, replicate 2 = 1499; inactive.
Knock-down of RpL19 resulted in: firefly Hh reporter signal, replicate 1 = 16352; firefly Hh reporter signal, replicate 2 = 16982; Renilla reference signal, replicate 1 = 1200; Renilla reference signal, replicate 2 = 1344; active.

2 entries already listed, arranged by “firefly Hh reporter signal, replicate 1”, descending.
SdhCL | firefly Hh reporter signal, replicate 1: 1.33e5; firefly Hh reporter signal, replicate 2: 1.76e5; Renilla reference signal, replicate 1: 3888; Renilla reference signal, replicate 2: 4793; Call: inactive
Tbc1d8-9 | firefly Hh reporter signal, replicate 1: 86028; firefly Hh reporter signal, replicate 2: 58480; Renilla reference signal, replicate 1: 2752; Renilla reference signal, replicate 2: 1475; Call: inactive
